Reference: PubChem BioAssay (EPA / NIEHS)
Inconclusive means that the source gave no clear call. Such entries were picked first, then a sample of the others. For part of these data: A potency beside an inconclusive call is a rough fit, not a confirmed value. The source made the active and inactive calls. Rule for the calls: active = hit-call score of the fitted dose curve at least 0.9, where 1 is the maximum; inconclusive = response in the unintended direction; inactive = score below 0.9.

Protein sequences, listed by entry. Tags and fused reporters are not part of them. Lines headed by an entry give the natural chain unless they say otherwise; changes in a name come on top.
UniProt P10827: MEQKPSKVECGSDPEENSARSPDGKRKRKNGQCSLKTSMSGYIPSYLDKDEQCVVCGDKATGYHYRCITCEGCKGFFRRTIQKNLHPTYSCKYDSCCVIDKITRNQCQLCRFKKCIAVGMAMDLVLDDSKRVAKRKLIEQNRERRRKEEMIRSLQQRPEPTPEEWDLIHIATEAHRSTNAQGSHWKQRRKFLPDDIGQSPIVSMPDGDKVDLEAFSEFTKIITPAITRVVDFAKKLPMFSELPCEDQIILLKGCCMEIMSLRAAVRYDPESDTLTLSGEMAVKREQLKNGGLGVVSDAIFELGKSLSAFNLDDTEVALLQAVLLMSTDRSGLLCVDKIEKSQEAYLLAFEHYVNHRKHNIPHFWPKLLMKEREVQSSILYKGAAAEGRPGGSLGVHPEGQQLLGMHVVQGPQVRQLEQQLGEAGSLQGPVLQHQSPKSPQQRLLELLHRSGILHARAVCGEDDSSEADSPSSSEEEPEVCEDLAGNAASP
UniProt P10828: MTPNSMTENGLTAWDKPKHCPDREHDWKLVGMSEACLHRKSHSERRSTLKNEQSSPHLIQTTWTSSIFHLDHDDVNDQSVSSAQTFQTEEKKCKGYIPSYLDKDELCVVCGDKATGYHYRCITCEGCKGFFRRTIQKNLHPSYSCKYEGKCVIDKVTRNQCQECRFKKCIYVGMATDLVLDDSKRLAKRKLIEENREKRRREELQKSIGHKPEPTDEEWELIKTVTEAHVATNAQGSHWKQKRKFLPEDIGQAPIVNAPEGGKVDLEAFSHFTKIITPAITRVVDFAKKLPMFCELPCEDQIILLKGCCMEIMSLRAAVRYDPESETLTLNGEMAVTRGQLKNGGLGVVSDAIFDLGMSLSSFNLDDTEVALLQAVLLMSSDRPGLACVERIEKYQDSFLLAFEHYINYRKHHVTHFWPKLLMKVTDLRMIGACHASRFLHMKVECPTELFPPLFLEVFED
UniProt P19793: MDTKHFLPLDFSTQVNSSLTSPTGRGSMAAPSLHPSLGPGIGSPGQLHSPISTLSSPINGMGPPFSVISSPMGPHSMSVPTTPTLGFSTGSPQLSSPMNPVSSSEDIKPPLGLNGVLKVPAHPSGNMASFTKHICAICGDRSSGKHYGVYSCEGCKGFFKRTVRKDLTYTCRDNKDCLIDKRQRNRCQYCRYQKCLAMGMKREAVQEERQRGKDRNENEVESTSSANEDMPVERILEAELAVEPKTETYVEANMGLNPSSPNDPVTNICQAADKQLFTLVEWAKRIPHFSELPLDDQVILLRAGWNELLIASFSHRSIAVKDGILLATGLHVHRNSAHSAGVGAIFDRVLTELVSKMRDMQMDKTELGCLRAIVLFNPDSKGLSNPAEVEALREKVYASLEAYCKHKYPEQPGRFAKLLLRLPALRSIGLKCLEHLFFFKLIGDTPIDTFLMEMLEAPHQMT
UniProt P10275: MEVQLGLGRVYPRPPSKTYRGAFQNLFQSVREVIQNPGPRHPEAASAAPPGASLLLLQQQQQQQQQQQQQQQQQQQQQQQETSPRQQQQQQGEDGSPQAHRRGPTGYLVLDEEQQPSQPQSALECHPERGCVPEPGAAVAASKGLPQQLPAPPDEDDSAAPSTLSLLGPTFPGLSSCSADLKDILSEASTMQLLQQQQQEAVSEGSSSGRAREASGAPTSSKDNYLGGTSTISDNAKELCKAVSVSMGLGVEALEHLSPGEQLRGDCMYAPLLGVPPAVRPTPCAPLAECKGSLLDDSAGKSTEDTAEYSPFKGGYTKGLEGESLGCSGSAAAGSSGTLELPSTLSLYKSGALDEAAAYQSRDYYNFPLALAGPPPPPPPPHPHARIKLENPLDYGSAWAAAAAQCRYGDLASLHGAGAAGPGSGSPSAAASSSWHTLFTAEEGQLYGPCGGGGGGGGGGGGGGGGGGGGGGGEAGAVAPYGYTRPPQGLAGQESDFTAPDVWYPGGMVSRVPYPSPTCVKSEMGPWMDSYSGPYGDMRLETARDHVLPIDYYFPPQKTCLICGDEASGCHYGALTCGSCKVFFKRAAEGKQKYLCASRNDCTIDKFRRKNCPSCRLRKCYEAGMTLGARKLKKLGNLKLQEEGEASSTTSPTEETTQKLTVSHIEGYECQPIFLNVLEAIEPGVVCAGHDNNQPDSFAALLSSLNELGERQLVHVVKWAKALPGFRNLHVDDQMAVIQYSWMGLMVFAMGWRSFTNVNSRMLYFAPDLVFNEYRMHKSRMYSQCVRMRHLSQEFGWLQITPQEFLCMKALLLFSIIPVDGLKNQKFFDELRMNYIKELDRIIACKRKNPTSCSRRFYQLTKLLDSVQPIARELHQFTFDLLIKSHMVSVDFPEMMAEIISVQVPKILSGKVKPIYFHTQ

Target: THRA (gene 7067) (UniProt P10827)
Experiment: TOX21_TRA_COA_Antagonist_Followup_ratio: Tox21 Thyroid Hormone Receptor alpha Antagonism through Coactivator Recruitment Follow-Up Assay, Ratio (AID 2283953)
How it was run: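 We measured antagonism of T3-type coactivator recruitment using a TR-FRET ratio (emission 520 and 495 nm) between a Tb-labelled anti-GST antibody on TRα LBD (2.5 nM) and SRC-2 peptide (200 nM). Activity was scaled between DMSO and T3 wells.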

SMILES | outcome | AC50
CO/C=C(/C(=O)OC)c1ccccc1COc1cccc(C(F)(F)F)n1 | inactive | 
CCc1nn(C)c(C(=O)NCc2ccc(C(C)(C)C)cc2)c1Cl |  | inconclusive: 38.3 µM
C[C@]12CCC(=O)C=C1CC[C@@H]1[C@@H]2CC[C@@]2(C)[C@H]1CC[C@]2(C)O | inactive | 
CO/N=C(/C(=O)OC)c1ccccc1COc1ccccc1C |  | inconclusive: 38.3 µM

Target: THRB (gene 7068) (UniProt P10828)
Experiment: TOX21_TRB_BLA_Agonist_Followup_ratio: Tox21 Thyroid Hormone Receptor beta Agonism Beta-lactamase (BLA) Follow-Up Assay, Ratio (AID 2283954)
How it was run: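 Agonist mode: compounds (11-point, triplicate) incubated 18 h with HEK293T cells carrying GAL4-DBD/human TRβ-LBD and UAS-β-lactamase. Blue/green (460/530 nm) FRET ratio read after 2 h CCF4-AM loading; CellTiter-Glo viability run in the same plates.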

SMILES | outcome | AC50
O=C(Cl)OCCOCCOC(=O)Cl | inactive | 
CC(C)(OO)c1ccccc1 |  | inconclusive: 38.3 µM
C=CC(=O)[O][Sn]([CH2]CCC)([CH2]CCC)[CH2]CCC | inactive | 
C=C(C)C(=O)[O][Sn]([CH2]CCC)([CH2]CCC)[CH2]CCC |  | active: 68.3 µM
CN(C)c1ccc(N=O)cc1 |  | inconclusive: 13.8 µM
CCC[CH2][Sn]([CH2]CCC)([CH2]CCC)[CH2]CCC | inactive | 
CC(Cc1ccc(OCC(=O)O)cc1)NCC(O)c1csc(C(F)(F)F)n1 (configuration not stated) |  | inconclusive: 38.3 µM
CNC(=O)ON=C(CSC)C(C)(C)C | inactive | 

System: not listed separately
Experiment: TOX21_TRB_BLA_Antagonist_Followup_viability: Viability Assessment in the Tox21 Thyroid Hormone Receptor beta Antagonism Beta-lactamase (BLA) Follow-Up Assay (AID 2283961)
How it was run: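 HEK293T cells stably expressing GAL4-DBD/human TRβ-LBD with UAS-bla reporter, 3,000 cells/well in phenol red-free DMEM, 2% charcoal-stripped FBS. Compounds at 11 concentrations in triplicate, 18 h at 37C/5% CO2; viability by CellTiter-Glo luminescence after 30 min at room temperature.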

SMILES | AC50
CO/N=C(/C1=NOCCO1)c1ccccc1Oc1ncnc(Oc2ccccc2Cl)c1F | active: 38.3 µM
CCc1nn(C)c(C(=O)NCc2ccc(C(C)(C)C)cc2)c1Cl | active: 4.69 µM
C[C@]12CCC(=O)C=C1CC[C@@H]1[C@@H]2CC[C@@]2(C)[C@H]1CC[C@]2(C)O | inconclusive: 0.13 µM
CC1(c2ccc(Oc3ccccc3)cc2)OC(=O)N(Nc2ccccc2)C1=O (configuration not stated) | active: 22 µM

Target: Retinoic acid receptor RXR-alpha (Homo sapiens) (UniProt P19793)
Experiment: TOX21_TR_RXR_BLA_Agonist_Followup_ratio: Tox21 Thyroid Hormone Receptor beta Retinoid X Receptor alpha (RXRa) Agonism Beta-lactamase (BLA) Follow-Up Assay, Ratio (AID 2283968)
How it was run: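 Read-out: blue/green (460:530 nm) FRET ratio from cleaved vs uncleaved CCF4 substrate, fitted for gain of signal relative to DMSO. Cells: HEK293T with RXRa-UAS-bla reporter; 16 h compound exposure, 11 concentrations, triplicate.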

SMILES | AC50
CC(C)(c1ccccc1)c1ccc(O)c(C(C)(C)c2ccccc2)c1 | inconclusive: 26 µM
CN(C)c1ccc(N=O)cc1 | inconclusive: 16 µM
CCC[CH2][Sn]([CH2]CCC)([CH2]CCC)[CH2]CCC | active: 5.08 µM

System: not listed separately
Experiment: TOX21_TR_RXR_BLA_Agonist_Followup_viability: Viability Assessment in the Tox21 Thyroid Hormone Receptor beta Retinoid X Receptor alpha (RXRa) Agonism Beta-lactamase (BLA) Follow-Up Assay (AID 2283970)
How it was run: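 CellTiter-Glo ATP quantitation as viability read-out in RXRa-bla HEK293T cells (2,500/well, charcoal-stripped 2% FBS medium), 16h compound incubation at 37C. Loss of signal versus DMSO taken as cytotoxicity, analyzed by bidirectional curve fitting.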

SMILES | outcome | AC50
C[N+]1(C)CCCCC1 | inactive | 
C=CC(=O)[O][Sn]([CH2]CCC)([CH2]CCC)[CH2]CCC |  | active: 9.68 µM
CN(C)c1ccc(N=O)cc1 |  | active: 49.6 µM

Target: Retinoic acid receptor RXR-alpha (Homo sapiens) (UniProt P19793)
Experiment: TOX21_TR_RXR_BLA_Antagonist_Followup_ratio: Tox21 Thyroid Hormone Receptor beta Retinoid X Receptor alpha (RXRa) Antagonism Beta-lactamase (BLA) Follow-Up Assay, Ratio (AID 2283972)
Description: GeneBLAzer RXRa-UAS-bla HEK293T assay (RXRa-bla) (ThermoFisherScientific Catalog No. K1697) was run in qHTS 1536 well format as a secondary assay for specificity of response in the TOX21_TR_GH3_LUC_Agonist assay.TOX21_TR_RXR_BLA_Antagonist_Followup_ratio is an assay readout measuring reporter gene via receptor activity and designed using inducible reporter (beta lactamase induction) detected with GAL4 b-lactamase reporter gene. The signal is derived from the ratio of cleaved (ch2) to uncleaved (ch1) reporter gene substrate used as the measure of target activity.Data from the assay component TOX21_TR_RXR_BLA_Antagonist_Followup_ratio was analyzed into 1 assay endpoint. This assay endpoint, TOX21_TR_RXR_BLA_Antagonist_Followup_ratio, was analyzed in the positive analysis fitting direction relative to DMSO as the negative control and baseline of activity. Using a type of inducible reporter, loss-of-signal activity can be used to understand changes in the reporter gene as they relate to the gene RXRA. Furthermore, this assay endpoint can be referred to as a primary readout, because this assay has produced multiple assay endpoints and this ratio serves a reporter gene function to understand target activity. To generalize the intended target to other relatable targets, this assay endpoint is annotated to the nuclear receptor intended target family, where subfamily is non-steroidal.
Cell Media Required: Growth (90% DMEM/F-12, 10% Fetal Bovine Calf Serum, 100U/ml Penicillin, 100 ug/ml Streptomycin), Assay (10ng/mL sodium selenite, 10 ug/mL humanapo-transferrin, […] uM ethanolamine, 10 ug/mL insulin, 500 ug/mL bovine serum albumin (BSA))Assay Protocol: RXRa-bla cells were seeded at 2,500/well in 6 uL of the assay medium containing phenol red-free DMEM with 2% charcoal-stripped FBS in 1,536-well black-wall/clear-bottom plates (Greiner Bio-One North America) usinga Multidrop Combi dispenser. After5-h incubation at 37C/5% CO2 for cell attachment, 23 nL of follow-up compounds dissolved in DMSO, 11 concentrations in triplicate, and the positive control (9-cis retinoic acid) were transferred to the assay plates using a Pintool station. The assay plates were incubated at 37C/5% CO2 for 16h. One microliter of LiveBLAzer FRET-B/GCCF4-AM substrate (Life Technologies) was added to each well using an FRD. After 2-h incubation at room temperature, the fluorescence intensity was measured using an Envision plate reader (Perkin Elmer). Data were expressed as the ratio of 460:530 nm.

SMILES | outcome | AC50
CO/N=C(/C1=NOCCO1)c1ccccc1Oc1ncnc(Oc2ccccc2Cl)c1F | inactive | 
CO/C=C(/C(=O)OC)c1ccccc1COc1cccc(C(F)(F)F)n1 | inactive | 
CCc1nn(C)c(C(=O)NCc2ccc(C(C)(C)C)cc2)c1Cl | inactive | 
CN(C)C(=S)SSC(=S)N(C)C |  | inconclusive: 38.3 µM
C[C@]12CCC(=O)C=C1CC[C@@H]1[C@@H]2CC[C@@]2(C)[C@H]1CC[C@]2(C)O |  | inconclusive: 7.79 µM
CO/N=C(/C(=O)OC)c1ccccc1COc1ccccc1C | inactive | 

Target: Nucleoli Translocation, AR (gene 367) (UniProt P10275)
Experiment: UPITT_HCI_U2OS_AR_TIF2_Nucleoli_Antagonist: University of Pittsburgh U2OS Androgen Receptor-Transcriptional Intermediary Factor 2 (AR-TIF2) Antagonism High Content Imaging Assay for Nucleoli Translocation (AID 2283997)
How it was run: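 Compounds are added at 20 uM final concentration in 0.2% DMSO to U2OS cells carrying AR-RFP and TIF2-GFP fusions. Nucleolar AR-RFP fluorescence is then quantified by automated imaging. Antagonism is fitted positively against DHT baseline.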

SMILES | AC50 | outcome
Cc1cc(Cl)ccc1OCC(=O)O | inconclusive: 50 µM | 
CCC(=O)O[C@H]1CC[C@H]2[C@@H]3CCC4=CC(=O)CC[C@]4(C)[C@H]3CC[C@]12C | inconclusive: 0.000682 µM | 
COCCl |  | inactive
Oc1ccc(Cl)cc1Cc1ccccc1 | active: 19.1 µM | 
C[C@H]1CCCC(=O)CCC/C=C/c2cc(O)cc(O)c2C(=O)O1 | active: 6.39 µM | 
C[N+](C)(C)CC1CO1 (configuration not stated) | inconclusive: 50 µM | 
COC(=O)c1c(C(F)F)nc(C(F)(F)F)c(C2=NCCS2)c1CC(C)C |  | inactive
O=C1C2(Cl)C3(Cl)C4(Cl)C(Cl)(Cl)C5(Cl)C3(Cl)C1(Cl)C5(Cl)C24Cl (configuration not stated) | active: 13.3 µM | 
Nc1c(Cl)c(F)nc(OCC(=O)O)c1Cl | inconclusive: 50 µM | 
COP(=O)(OC)OC(Br)C(Cl)(Cl)Br (configuration not stated) | active: 13.6 µM | 
Cc1ccccc1C(=O)Nc1cccc(OC(C)C)c1 |  | inactive
C[C@]12C=CC3=C4CCC(=O)C=C4CC[C@H]3[C@@H]1CC[C@@H]2O | inconclusive: 0.00126 µM | 
O=C(CCl)Nc1ccccc1 | active: 29 µM | 
CC(C)N(C(=O)CCl)c1ccccc1 | active: 16 µM | 

Complete entries from above.
`O=C(CCl)Nc1ccccc1` in the list: AC50: active: 29 µM
`CC(C)N(C(=O)CCl)c1ccccc1` in the list: AC50: active: 16 µM
